Assay results: patent US20240052048A1
These are yes or no findings as the source states them, for the method shown. Some binding calls cover weakened binding; strength is not graded here.

Columns and labels:
[1] = biological target: monkey BCMA (recombinant antigen, tag not stated for the assay) (monkey); test: ELISA, antigen coated 2 ug/mL
[2] = biological target: monkey BCMA (recombinant antigen, tag not stated for the assay) (monkey); test: ELISA, FIG. 9(B)
[3] = biological target: monkey BCMA (recombinant antigen, tag not stated for the assay) (monkey); test: ELISA, FIG. 4(B), monkey BCMA

Measured: binding

B1: GSK2857916 (positive control antibody, not coupled to the toxin molecule) (antibody, V domains shown)
VH: QVQLVQSGAEVKKPGSSVKVSCKASGGTFSNYWMHWVRQAPGQGLEWMGATYRGHSDTYYNQKFKGRVTITADKSTSTAYMELSSLRSEDTAVYYCARGAIYDGYDVLDNWGQGTLVTVSS
VL: DIQMTQSPSSLSASVGDRVTITCSASQDISNYLNWYQQKPGKAPKLLIYYTSNLHSGVPSRFSGSGSGTDFTLTISSLQPEDFATYYCQQYRKLPWTFGQGTKLEIK
binds: all assays above
